Measured values: the supplement of paper PMC8728848
This is one part of the list.

What was measured:
Experiment in all cases: glycan array binding signal (z-score within array); higher = stronger binding
Conditions in all cases: glycan notation: IUPAC condensed, linker removed
[1] = biological target: GlcNAc(b1-4)GlcNAc(b1-4)GlcNAc(b1-4)GlcNAc(b1-4)GlcNAc(b1-4)GlcNAc
In short: (§1)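 Columns mapping to the same glycan were averaged after glycan names were converted to IUPAC-condensed notation. The data come from 3228 arrays in the Consortium for Functional Glycomics database, limited to those with an available protein sequence. Binding is reported as a within-array Z-score averaged across arrays of one protein sequence and across linkers.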

[2] = biological target: GlcNAc(b1-4)[GlcNAc(b1-6)]GalNAc
In short: as §1

[3] = biological target: GlcNAc(b1-6)Gal(b1-4)GlcNAc
In short: as §1

GlcNAc(b1-6)GalNAc = biological target: GlcNAc(b1-6)GalNAc
In short: as §1

[4] = biological target: GlcNAc6S(b1-3)Gal(b1-4)GlcNAc
In short: as §1

Kdn(a2-3)Gal(b1-3)GalNAc = biological target: Kdn(a2-3)Gal(b1-3)GalNAc
In short: as §1

Kdn(a2-3)Gal(b1-3)GlcNAc = biological target: Kdn(a2-3)Gal(b1-3)GlcNAc
In short: as §1

Kdn(a2-3)Gal(b1-4)Glc = biological target: Kdn(a2-3)Gal(b1-4)Glc
In short: as §1

Kdn(a2-3)Gal(b1-4)GlcNAc = biological target: Kdn(a2-3)Gal(b1-4)GlcNAc
In short: as §1

[5] = biological target: Kdn(a2-3)Gal(b1-4)[Fuc(a1-3)]GlcNAc
In short: as §1

Kdn(a2-6)Gal(b1-4)GlcNAc = biological target: Kdn(a2-6)Gal(b1-4)GlcNAc
In short: as §1

[6] = biological target: Man(a1-2)Man(a1-2)Man(a1-3)Man
In short: as §1

[7] = biological target: Man(a1-2)Man(a1-2)Man(a1-6)[Man(a1-3)]Man
In short: as §1

Man(a1-2)Man(a1-3)Man = biological target: Man(a1-2)Man(a1-3)Man
In short: as §1

[8] = biological target: Man(a1-2)Man(a1-3)[Man(a1-2)Man(a1-6)]Man
In short: as §1

[9] = biological target: Man(a1-2)Man(a1-3)[Man(a1-2)Man(a1-6)]Man(a1-6)[Man(a1-2)Man(a1-2)Man(a1-3)]Man
In short: as §1

[10] = biological target: Man(a1-2)Man(a1-3)[Man(a1-2)Man(a1-6)]Man(a1-6)[Man(a1-2)Man(a1-2)Man(a1-3)]Man(b1-4)GlcNAc(b1-4)GlcNAc
In short: as §1

[11] = biological target: Man(a1-2)Man(a1-3)[Man(a1-6)]Man(a1-6)[Man(a1-2)Man(a1-3)]Man(b1-4)GlcNAc(b1-4)GlcNAc
In short: as §1

[12] = biological target: Man(a1-2)Man(a1-6)[Man(a1-3)]Man(a1-6)[Man(a1-2)Man(a1-2)Man(a1-3)]Man
In short: as §1

[13] = biological target: Man(a1-2)Man(a1-6)[Man(a1-3)]Man(a1-6)[Man(a1-2)Man(a1-2)Man(a1-3)]Man(b1-4)GlcNAc(b1-4)GlcNAc
In short: as §1

Man(a1-3)[Man(a1-6)]Man = biological target: Man(a1-3)[Man(a1-6)]Man
In short: as §1

[14] = biological target: Man(a1-3)[Man(a1-6)]Man(a1-6)[Man(a1-2)Man(a1-3)]Man(b1-4)GlcNAc(b1-4)GlcNAc
In short: as §1

[15] = biological target: Man(a1-3)[Man(a1-6)]Man(a1-6)[Man(a1-3)]Man
In short: as §1

[16] = biological target: Man(a1-3)[Man(a1-6)]Man(a1-6)[Man(a1-3)]Man(b1-4)GlcNAc(b1-4)GlcNAc
In short: as §1

[17] = biological target: Man(a1-3)[Man(a1-6)]Man(b1-4)GlcNAc(b1-4)GlcNAc
In short: as §1

[18] = biological target: Man(a1-3)[Man(a1-6)]Man(b1-4)GlcNAc(b1-4)[Fuc(a1-6)]GlcNAc
In short: as §1

Man(a1-6)Man = biological target: Man(a1-6)Man
In short: as §1

Man(b1-4)GlcNAc = biological target: Man(b1-4)GlcNAc
In short: as §1

MurNAc(b1-4)GlcNAc = biological target: MurNAc(b1-4)GlcNAc
In short: as §1

Neu5Ac(a2-3)Gal = biological target: Neu5Ac(a2-3)Gal
In short: as §1

[19] = biological target: Neu5Ac(a2-3)Gal(b1-3)GalNAc
In short: as §1

[20] = biological target: Neu5Ac(a2-3)Gal(b1-3)GalNAc(b1-3)Gal(a1-4)Gal(b1-4)Glc
In short: as §1

[21] = biological target: Neu5Ac(a2-3)Gal(b1-3)GalNAc(b1-4)Gal(b1-4)Glc
In short: as §1

[22] = biological target: Neu5Ac(a2-3)Gal(b1-3)GalNAc(b1-4)[Neu5Ac(a2-3)]Gal(b1-4)Glc
In short: as §1

[23] = biological target: Neu5Ac(a2-3)Gal(b1-3)GalNAc(b1-4)[Neu5Ac(a2-8)Neu5Ac(a2-3)]Gal(b1-4)Glc
In short: as §1

[24] = biological target: Neu5Ac(a2-3)Gal(b1-3)GalNAc6S
In short: as §1

[25] = biological target: Neu5Ac(a2-3)Gal(b1-3)GlcNAc
In short: as §1

[26] = biological target: Neu5Ac(a2-3)Gal(b1-3)GlcNAc(b1-2)Man
In short: as §1

[27] = biological target: Neu5Ac(a2-3)Gal(b1-3)GlcNAc(b1-2)Man(a1-3)[GlcNAc(b1-4)][Neu5Ac(a2-3)Gal(b1-3)GlcNAc(b1-2)Man(a1-6)]Man(b1-4)GlcNAc(b1-4)GlcNAc
In short: as §1

[28] = biological target: Neu5Ac(a2-3)Gal(b1-3)GlcNAc(b1-2)Man(a1-3)[Neu5Ac(a2-3)Gal(b1-3)GlcNAc(b1-2)Man(a1-6)]Man(b1-4)GlcNAc(b1-4)GlcNAc
In short: as §1

[29] = biological target: Neu5Ac(a2-3)Gal(b1-3)GlcNAc(b1-2)[Neu5Ac(a2-3)Gal(b1-3)GlcNAc(b1-4)]Man(a1-6)[Neu5Ac(a2-3)Gal(b1-3)GlcNAc(b1-2)Man(a1-3)]Man(b1-4)GlcNAc(b1-4)GlcNAc
In short: as §1

[30] = biological target: Neu5Ac(a2-3)Gal(b1-3)GlcNAc(b1-3)Gal(b1-3)GlcNAc
In short: as §1

[31] = biological target: Neu5Ac(a2-3)Gal(b1-3)GlcNAc(b1-3)Gal(b1-4)GlcNAc
In short: as §1

[32] = biological target: Neu5Ac(a2-3)Gal(b1-3)GlcNAc(b1-3)GalNAc
In short: as §1

[33] = biological target: Neu5Ac(a2-3)Gal(b1-3)GlcNAc(b1-6)GalNAc
In short: as §1

B1: Agalectin (Anopheles gambiae) (protein)
chain: MSNRPFTAKFPRYPENGDEVFIRGKLKDDAKSFSVNFCLPRPAQVAEHQTPPYIALHFKTIYDERDDTSRVVLNWKNLQWQQEEVLDNYWHVDRSQTFRVVFRLHEDCIKVFVNSVDHPPDYQFPVQLPLDQIESIELWDDVEHVEEISFRYDNGNSY
Q: B1 was tested. Which “glycan array binding signal (z-score)” value [1] did it give?
A: 0.058

Q: And the “glycan array binding signal (z-score)” value [2]?
A: 0.094

Q: What about the “glycan array binding signal (z-score)” value [3] of the same binder?
A: -0.635

Q: What about the “glycan array binding signal (z-score)” value (GlcNAc(b1-6)GalNAc) of the same binder?
A: 0.19

Q: And the “glycan array binding signal (z-score)” value [4]?
A: 0.391

Q: And the “glycan array binding signal (z-score)” value (Kdn(a2-3)Gal(b1-3)GalNAc)?
A: 0.147

Q: What about the “glycan array binding signal (z-score)” value (Kdn(a2-3)Gal(b1-3)GlcNAc) of the same binder?
A: -0.525

Q: And the “glycan array binding signal (z-score)” value (Kdn(a2-3)Gal(b1-4)Glc)?
A: 0.035

Q: And the “glycan array binding signal (z-score)” value (Kdn(a2-3)Gal(b1-4)GlcNAc)?
A: 0.262

Q: And the “glycan array binding signal (z-score)” value [5]?
A: 2.8

Q: What about the “glycan array binding signal (z-score)” value (Kdn(a2-6)Gal(b1-4)GlcNAc) of the same binder?
A: -0.979

Q: And the “glycan array binding signal (z-score)” value [6]?
A: -0.834

Q: And the “glycan array binding signal (z-score)” value [7]?
A: 2.33

Q: What about the “glycan array binding signal (z-score)” value (Man(a1-2)Man(a1-3)Man) of the same binder?
A: 0.1

Q: And the “glycan array binding signal (z-score)” value [8]?
A: -1.28

Q: And the “glycan array binding signal (z-score)” value [9]?
A: -0.538

Q: What about the “glycan array binding signal (z-score)” value [10] of the same binder?
A: -0.504

Q: And the “glycan array binding signal (z-score)” value [11]?
A: -1.04

Q: And the “glycan array binding signal (z-score)” value [12]?
A: -0.223

Q: And the “glycan array binding signal (z-score)” value [13]?
A: -0.912

Q: What about the “glycan array binding signal (z-score)” value (Man(a1-3)[Man(a1-6)]Man) of the same binder?
A: 0.856

Q: And the “glycan array binding signal (z-score)” value [14]?
A: 0.128

Q: What about the “glycan array binding signal (z-score)” value [15] of the same binder?
A: -0.218

Q: And the “glycan array binding signal (z-score)” value [16]?
A: -1.16

Q: And the “glycan array binding signal (z-score)” value [17]?
A: -0.493

Q: What about the “glycan array binding signal (z-score)” value [18] of the same binder?
A: 0.215

Q: And the “glycan array binding signal (z-score)” value (Man(a1-6)Man)?
A: 0.805

Q: What about the “glycan array binding signal (z-score)” value (Man(b1-4)GlcNAc) of the same binder?
A: -1.01

Q: And the “glycan array binding signal (z-score)” value (MurNAc(b1-4)GlcNAc)?
A: -0.747

Q: What about the “glycan array binding signal (z-score)” value (Neu5Ac(a2-3)Gal) of the same binder?
A: 0.334

Q: And the “glycan array binding signal (z-score)” value [19]?
A: -0.488

Q: And the “glycan array binding signal (z-score)” value [20]?
A: 0.518

Q: And the “glycan array binding signal (z-score)” value [21]?
A: -0.568

Q: What about the “glycan array binding signal (z-score)” value [22] of the same binder?
A: -0.195

Q: What about the “glycan array binding signal (z-score)” value [23] of the same binder?
A: -0.463

Q: What about the “glycan array binding signal (z-score)” value [24] of the same binder?
A: 0.301

Q: What about the “glycan array binding signal (z-score)” value [25] of the same binder?
A: 0.384

Q: And the “glycan array binding signal (z-score)” value [26]?
A: -1.04

Q: And the “glycan array binding signal (z-score)” value [27]?
A: -0.29

Q: And the “glycan array binding signal (z-score)” value [28]?
A: -0.342

Q: What about the “glycan array binding signal (z-score)” value [29] of the same binder?
A: 0.945

Q: And the “glycan array binding signal (z-score)” value [30]?
A: -1.41

Q: What about the “glycan array binding signal (z-score)” value [31] of the same binder?
A: 0.145

Q: And the “glycan array binding signal (z-score)” value [32]?
A: -0.42

Q: And the “glycan array binding signal (z-score)” value [33]?
A: 0.07
